PubChem BioAssay AID493246 – Drosophila RNAi Screening Center | 2011

Test: 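Genes fly cells need to grow and stay alive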 (primary screen)
System: Drosophila Kc and S2R+ cells
Knock-down reagent: long dsRNA against Drosophila genes
Read-out: 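Cell number per well after knock-down, printed as raw plate values; calls were based on per-plate z-scores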
Reading the numbers: Kc cell number and S2R+ cell number: higher = more cells remaining
Call rule: 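Active when the per-plate z-score of cell number is 3 or more in the direction of fewer cells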
The screen tested about 21,000 reagents; this is a random part of those that have a named target and a result. Of all reagents, 429 (2%) got an active call. 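Values are raw and not normalised between plates; calls rest on per-plate z-scores that were not deposited.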 Not given: the amount of reagent, the time to read-out.

no.	gene	amplicon	Kc cell number, rep 1	Kc cell number, rep 2	S2R+ cell number, rep 1	S2R+ cell number, rep 2	Call
1	polybromo (GeneID 42954)	DRSC14307	1.49e6	1.60e6	1.21e6	1.27e6	inactive
2	CG7379 (GeneID 42140)	DRSC16237	1.57e6	1.64e6	1.13e6	1.25e6	inactive
3	PKD (GeneID 42203)	DRSC16200	1.32e6	1.29e6	1.09e6	1.18e6	inactive
4	PCNA (GeneID 37290)	DRSC07653	1.20e6	1.27e6	7.07e5	7.90e5	inactive
5	tfc (GeneID 38141)	DRSC07953	1.50e6	1.45e6	9.75e5	1.11e6	inactive
6	tfc (GeneID 38141)	DRSC07954	1.42e6	1.39e6	9.61e5	1.14e6	inactive
7	tfc (GeneID 38141)	DRSC08626	1.40e6	1.38e6	1.11e6	1.12e6	inactive
8	CG5355 (GeneID 34421)	DRSC02844	1.42e6	1.43e6	1.17e6	1.23e6	inactive
9	CG12164 (GeneID 35651)	DRSC06115	1.49e6	1.58e6	1.24e6	1.32e6	inactive
10	ppk24 (GeneID 43702)	DRSC15093	1.48e6	1.56e6	1.07e6	1.21e6	inactive
11	CG18269 (GeneID 33785)	DRSC02660	1.59e6	1.48e6	1.11e6	1.24e6	inactive
12	Arl6IP1 (GeneID 42027)	DRSC14231	1.45e6	1.43e6	1.09e6	1.20e6	inactive
13	CG11839 (GeneID 43006)	DRSC14398	1.50e6	1.51e6	1.07e6	1.12e6	inactive
14	CG18568 (GeneID 36549)	DRSC06768	1.42e6	1.49e6	4.69e5	1.08e6	inactive
15	CG10459 (GeneID 36000)	DRSC05991	1.79e6	1.87e6	1.47e6	1.65e6	inactive
16	AMPKalpha (GeneID 43904)	DRSC18714	5.94e5		9.50e5		inactive
17	CG12880 (GeneID 43328)	DRSC14568	5.11e5		8.19e5		inactive
18	RnrS (GeneID 36280)	DRSC07533	8.89e5	9.51e5	6.23e5	7.35e5	inactive
19	CG34054 (GeneID 3885601)	DRSC05277	1.46e6	1.44e6	9.99e5	1.13e6	inactive
20	CG7289 (GeneID 33372)	DRSC00697	1.41e6	1.39e6	1.04e6	1.25e6	inactive
21	Taf2 (GeneID 39164)	DRSC11298	1.36e6	1.39e6	1.21e6	8.91e5	inactive
22	CG12780 (GeneID 35834)	DRSC06169	1.53e6	1.70e6	1.28e6	1.41e6	inactive
23	Prosbeta4R1 (GeneID 33449)	DRSC00502	1.58e6	1.52e6	1.11e6	1.29e6	inactive
24	Cyp6a2 (GeneID 35587)	DRSC05014	1.67e6	1.58e6	1.47e6	1.54e6	inactive
25	CG7248 (GeneID 39356)	DRSC10788	1.21e6	1.20e6	1.28e6	1.37e6	inactive
26	CG14322 (GeneID 42124)	DRSC14801	1.10e6	1.22e6	9.03e5	8.93e5	inactive
27	mRpL46 (GeneID 38230)	DRSC08391	1.54e6	1.54e6	8.20e5	1.06e6	inactive
28	CG11560 (GeneID 39376)	DRSC09843	1.42e6	1.43e6	1.35e6	1.29e6	inactive
29	Pink1 (GeneID 31607)	DRSC18361	4.80e5		8.07e5		inactive
30	CG15717 (GeneID 32262)	DRSC19684	1.90e6	1.80e6	1.17e6	1.27e6	inactive
31	eIF4A (GeneID 33835)	DRSC03526	1.02e6	8.10e5	5.77e5	7.06e5	active
32	CG11095 (GeneID 32348)	DRSC19375	5.99e5		8.39e5		inactive
33	CG11374 (GeneID 33163)	DRSC00306	1.75e6	1.78e6	1.17e6	1.25e6	inactive
34	CG15373 (GeneID 32784)	DRSC19663	1.47e6	1.46e6	1.08e6	1.07e6	inactive
35	fra (GeneID 36377)	DRSC07621	1.47e6	1.57e6	1.29e6	1.38e6	inactive
36	CG5171 (GeneID 34016)	DRSC02823	1.49e6	1.47e6	5.19e5	6.21e5	inactive
37	CG10041 (GeneID 41496)	DRSC14179	1.60e6	1.85e6	1.38e6	1.52e6	inactive
38	CG33061 (GeneID 318838)	DRSC09938	1.47e6	1.49e6	1.20e6	1.32e6	inactive
39	Set8 (GeneID 41743)	DRSC15473	1.32e6	1.39e6	1.12e6	1.20e6	inactive
40	CG32846 (GeneID 318244)	DRSC08012	1.51e6	1.62e6	1.13e6	1.20e6	inactive
